Measured values: PubChem BioAssay AID652054 (National Center for Advancing Translational Sciences (NCATS), 2013)
Where “and” joins values, the source holds several entries; their conditions need not be identical. Equal values may be shown once. Among all 360,000 compounds or so, about 9,100 (2.5%) were called active. The inconclusive results got no clear call from the source; some entries with a clear call stand among them for comparison. Rule as the data show it: active = max response below about -50%; inconclusive = no clear call, values can overlap the other calls; inactive = above that.

Amino acid sequences for entries named in this document (tags omitted).
UniProt P35462, whole entry, looked up: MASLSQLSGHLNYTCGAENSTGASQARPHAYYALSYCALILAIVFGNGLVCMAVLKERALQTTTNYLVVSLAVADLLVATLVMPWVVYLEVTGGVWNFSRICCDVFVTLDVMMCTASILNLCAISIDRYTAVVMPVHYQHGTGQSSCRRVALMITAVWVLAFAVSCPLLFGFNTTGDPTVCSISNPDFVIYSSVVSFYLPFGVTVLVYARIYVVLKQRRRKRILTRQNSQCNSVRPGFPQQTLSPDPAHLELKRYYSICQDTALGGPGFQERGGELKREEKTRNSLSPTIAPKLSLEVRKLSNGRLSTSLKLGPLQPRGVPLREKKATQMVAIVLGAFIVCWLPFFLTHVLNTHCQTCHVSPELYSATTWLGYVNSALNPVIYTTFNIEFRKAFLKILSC

Biological target: D(3) dopamine receptor (Homo sapiens) (UniProt P35462)
Test: qHTS of D3 Dopamine Receptor Antagonist: qHTS
Conditions: D3R cells, DiscoveRx beta-arrestin luminescence, antagonist mode; stronger effect = lower value
In short: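 Cells expressing the human receptor were seeded at 1500 cells/well, incubated overnight at 37 degrees C in 5% CO2, then exposed to library compounds with dopamine controls for 90 minutes at 37 degrees C before luminescent detection.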
% is scaled to controls: 0 for no effect and ±100 for the full control effect.

SMILES | max response, negative = inhibition
CC12CN(C(=O)c3ccccc3)C3(C#N)CC1CCC23C (stereo not given) | inactive: -2.58%
CCC(C)(C)n1nnnc1C(c1cc2cccc(C)c2[nH]c1=O)N1CCCC1 (stereo not given) | inactive: -15.7%
CCCCCn1c(SCCN2CCOCC2)nc2c1c(=O)[nH]c(=O)n2C | inconclusive: -36%
O=C(Oc1ccc(Cl)c2cccnc12)c1cccnc1 | active: -70%
O=C(COc1ccccc1)N1CCN(S(=O)(=O)c2ccc(Cl)cc2)CC1 | inconclusive: -34.7%
C=CCc1cc(Cl)ccc1OCCN1CC(C)OC(C)C1 (stereo not given) | inconclusive: -41.9%
COc1ccc(CNS(=O)(=O)c2cn(C)c(=O)n(C)c2=O)cc1 | inconclusive: -48.4%
COc1cc(N=c2ssnc2Cl)c(OC)cc1Cl | inconclusive: -31.1% and inconclusive: -33%
Cc1ccc(NC(=O)C2(S(=O)(=O)c3ccc(C)cc3)CC2)cc1 | inconclusive: -31.6%
N=c1n(CCN2CCOCC2)c2ccccc2n1Cc1ccccc1Br | inconclusive: -32.3%
COc1cccc(-c2nn(C)c3sc(C(=O)NCCCN(C)Cc4ccccc4)cc23)c1 | active: -53.3%
CCCCCNCc1ccc(Br)cc1 | inconclusive: -47.6%
COc1ccc(C(CNC(=O)C(CCSC)NC(=O)c2ccccc2Cl)N2CCCCC2)cc1 (stereo not given) | active: -59.1%
CC(C)(C)/C(O)=C(/C#N)c1nc2ccccc2[nH]1 | inconclusive: -30.8%
CC(C)(C)c1nnc(NC(=O)NS(=O)(=O)c2ccccc2)s1 | inconclusive: -48.8%
O=C(COC(=O)COc1ccccc1[N+](=O)[O-])Nc1cccc(Br)c1 | inconclusive: -35.8%
CCCCN(CCCC)C(=S)N/N=C/c1c(C)[nH]n(-c2ccccc2)c1=O | active: -104%
Cc1cc2c(c(=O)o1)C(Cc1ccccc1)C(C#N)=C(N)O2 (stereo not given) | inactive: 10.7%
O=[N+]([O-])c1ccccc1OCCNCc1ccccc1 | active: -85.8%
Cc1cc(C(=O)CCl)c(C)n1-c1cccc([N+](=O)[O-])c1 | inconclusive: -41.2%
CCCCn1nnnc1C(c1ccccc1)N1CCCN(Cc2ccc(F)cc2)CC1 (stereo not given) | active: -69.2%
COc1ccccc1NS(=O)(=O)c1cc([N+](=O)[O-])ccc1N/N=C/c1sc(N2CCOCC2)nc1-c1ccccc1 | active: -84.1%
CN(C(=O)c1ccc(NC(=O)Cc2cccc(NC(=O)C3CCCN(C(=O)C4CCCC4)C3)c2)cc1)C1CCCC1 (stereo not given) | inconclusive: -33.4%
CC(c1ccccc1)n1cnc2ccccc21 (stereo not given) | inconclusive: -42.6%
CCCN1C2CCCC1CC(NC(=O)c1ccc(OC)cc1)C2 (stereo not given) | inactive: -2.24%

Reformatted as a markdown table: two of the compounds above

| SMILES | max response, negative = inhibition |
| --- | --- |
| CCCCn1nnnc1C(c1ccccc1)N1CCCN(Cc2ccc(F)cc2)CC1 (stereo not given) | active: -69.2% |
| COc1ccccc1NS(=O)(=O)c1cc([N+](=O)[O-])ccc1N/N=C/c1sc(N2CCOCC2)nc1-c1ccccc1 | active: -84.1% |
